Reference: doi:10.1101/266833
These are yes or no findings as the source states them, for the method shown. In cells and extracts the contact can be indirect. These calls come from enrichment with a bait or labelling near it, and not all partners need be listed. No binding means not detected with the bait.

The chains behind the UniProt entries cited, without tags or fusion partners.
UniProt P33322: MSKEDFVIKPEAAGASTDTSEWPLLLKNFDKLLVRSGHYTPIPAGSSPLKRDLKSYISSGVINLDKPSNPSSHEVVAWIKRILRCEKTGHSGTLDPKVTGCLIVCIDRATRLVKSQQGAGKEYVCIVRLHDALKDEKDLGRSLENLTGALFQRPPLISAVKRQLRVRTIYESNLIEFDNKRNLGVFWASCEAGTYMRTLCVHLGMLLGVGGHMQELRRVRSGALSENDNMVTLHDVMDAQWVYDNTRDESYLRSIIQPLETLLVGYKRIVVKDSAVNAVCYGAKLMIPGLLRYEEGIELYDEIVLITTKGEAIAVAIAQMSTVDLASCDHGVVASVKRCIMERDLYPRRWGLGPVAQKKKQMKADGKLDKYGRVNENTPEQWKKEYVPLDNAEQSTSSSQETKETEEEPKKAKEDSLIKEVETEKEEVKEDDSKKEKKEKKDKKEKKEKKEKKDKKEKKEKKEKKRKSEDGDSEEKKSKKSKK
UniProt P28007: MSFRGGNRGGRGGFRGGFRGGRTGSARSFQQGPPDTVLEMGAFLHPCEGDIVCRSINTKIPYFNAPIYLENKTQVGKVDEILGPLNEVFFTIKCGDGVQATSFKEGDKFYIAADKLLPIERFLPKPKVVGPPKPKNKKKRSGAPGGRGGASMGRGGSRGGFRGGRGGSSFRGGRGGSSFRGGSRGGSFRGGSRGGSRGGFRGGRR
UniProt P05030: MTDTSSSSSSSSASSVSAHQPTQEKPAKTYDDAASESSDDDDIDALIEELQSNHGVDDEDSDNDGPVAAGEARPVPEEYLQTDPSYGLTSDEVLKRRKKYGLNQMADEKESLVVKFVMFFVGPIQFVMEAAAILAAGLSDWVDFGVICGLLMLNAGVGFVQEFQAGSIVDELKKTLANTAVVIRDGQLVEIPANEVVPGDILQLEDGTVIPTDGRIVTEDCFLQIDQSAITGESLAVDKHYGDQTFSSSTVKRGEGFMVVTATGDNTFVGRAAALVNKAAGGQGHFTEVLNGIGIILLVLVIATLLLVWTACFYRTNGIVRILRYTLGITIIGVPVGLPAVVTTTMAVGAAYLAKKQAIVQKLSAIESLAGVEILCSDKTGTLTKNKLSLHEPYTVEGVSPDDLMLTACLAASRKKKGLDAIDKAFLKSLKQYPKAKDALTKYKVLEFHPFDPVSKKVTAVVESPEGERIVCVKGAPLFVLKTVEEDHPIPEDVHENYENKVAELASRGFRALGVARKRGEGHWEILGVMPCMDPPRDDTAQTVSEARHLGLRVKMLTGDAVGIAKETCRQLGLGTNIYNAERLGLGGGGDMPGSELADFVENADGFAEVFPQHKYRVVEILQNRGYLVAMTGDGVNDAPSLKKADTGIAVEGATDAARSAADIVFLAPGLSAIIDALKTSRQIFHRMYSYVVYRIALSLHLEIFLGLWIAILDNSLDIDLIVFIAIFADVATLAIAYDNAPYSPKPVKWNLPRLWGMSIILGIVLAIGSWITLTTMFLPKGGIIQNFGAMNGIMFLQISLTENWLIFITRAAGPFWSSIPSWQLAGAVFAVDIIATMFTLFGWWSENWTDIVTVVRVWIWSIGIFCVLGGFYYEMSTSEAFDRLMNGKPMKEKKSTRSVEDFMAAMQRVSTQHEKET
UniProt P00359: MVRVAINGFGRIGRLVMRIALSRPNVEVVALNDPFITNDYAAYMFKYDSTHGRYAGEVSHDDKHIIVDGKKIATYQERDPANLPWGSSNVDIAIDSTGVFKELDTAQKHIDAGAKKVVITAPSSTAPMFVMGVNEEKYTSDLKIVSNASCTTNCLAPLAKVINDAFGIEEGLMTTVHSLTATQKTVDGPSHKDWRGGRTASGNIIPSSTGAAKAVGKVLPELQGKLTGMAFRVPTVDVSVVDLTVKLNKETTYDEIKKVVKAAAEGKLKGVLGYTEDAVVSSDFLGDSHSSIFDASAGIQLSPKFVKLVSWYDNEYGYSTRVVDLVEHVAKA
UniProt P12385: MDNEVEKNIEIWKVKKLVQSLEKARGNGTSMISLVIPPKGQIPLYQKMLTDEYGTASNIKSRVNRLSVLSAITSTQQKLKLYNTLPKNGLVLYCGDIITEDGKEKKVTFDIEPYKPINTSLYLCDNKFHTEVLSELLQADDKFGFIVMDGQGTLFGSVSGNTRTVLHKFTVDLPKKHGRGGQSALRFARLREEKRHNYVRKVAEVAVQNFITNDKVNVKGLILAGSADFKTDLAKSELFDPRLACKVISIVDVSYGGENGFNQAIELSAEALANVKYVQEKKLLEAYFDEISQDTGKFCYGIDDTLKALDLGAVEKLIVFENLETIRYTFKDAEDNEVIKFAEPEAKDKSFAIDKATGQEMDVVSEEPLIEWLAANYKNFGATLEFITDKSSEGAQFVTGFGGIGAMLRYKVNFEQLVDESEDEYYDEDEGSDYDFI
UniProt P05453: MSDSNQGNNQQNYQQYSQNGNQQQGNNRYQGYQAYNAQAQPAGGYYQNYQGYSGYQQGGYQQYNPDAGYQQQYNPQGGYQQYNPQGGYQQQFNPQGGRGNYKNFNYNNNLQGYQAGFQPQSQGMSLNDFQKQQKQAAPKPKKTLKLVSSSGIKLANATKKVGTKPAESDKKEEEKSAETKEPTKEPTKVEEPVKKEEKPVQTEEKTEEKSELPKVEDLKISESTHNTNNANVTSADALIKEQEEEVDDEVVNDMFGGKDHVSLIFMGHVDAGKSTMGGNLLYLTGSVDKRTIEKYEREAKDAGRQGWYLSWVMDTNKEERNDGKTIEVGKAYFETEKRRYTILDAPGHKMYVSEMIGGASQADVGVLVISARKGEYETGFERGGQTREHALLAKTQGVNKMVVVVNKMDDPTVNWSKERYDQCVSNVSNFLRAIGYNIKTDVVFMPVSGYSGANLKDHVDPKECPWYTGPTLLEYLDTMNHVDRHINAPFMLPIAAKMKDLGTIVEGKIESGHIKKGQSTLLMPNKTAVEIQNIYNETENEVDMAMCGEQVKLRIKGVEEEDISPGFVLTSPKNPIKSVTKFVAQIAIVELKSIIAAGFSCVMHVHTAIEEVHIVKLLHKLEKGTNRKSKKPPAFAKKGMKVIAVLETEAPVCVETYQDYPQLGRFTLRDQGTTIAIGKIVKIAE

Legend:
Test in all cases: affinity purification with mass spectrometry
[1] = biological target: T1, Upf1-TAP (S. cerevisiae) (UniProt P30771)
T1 sequence: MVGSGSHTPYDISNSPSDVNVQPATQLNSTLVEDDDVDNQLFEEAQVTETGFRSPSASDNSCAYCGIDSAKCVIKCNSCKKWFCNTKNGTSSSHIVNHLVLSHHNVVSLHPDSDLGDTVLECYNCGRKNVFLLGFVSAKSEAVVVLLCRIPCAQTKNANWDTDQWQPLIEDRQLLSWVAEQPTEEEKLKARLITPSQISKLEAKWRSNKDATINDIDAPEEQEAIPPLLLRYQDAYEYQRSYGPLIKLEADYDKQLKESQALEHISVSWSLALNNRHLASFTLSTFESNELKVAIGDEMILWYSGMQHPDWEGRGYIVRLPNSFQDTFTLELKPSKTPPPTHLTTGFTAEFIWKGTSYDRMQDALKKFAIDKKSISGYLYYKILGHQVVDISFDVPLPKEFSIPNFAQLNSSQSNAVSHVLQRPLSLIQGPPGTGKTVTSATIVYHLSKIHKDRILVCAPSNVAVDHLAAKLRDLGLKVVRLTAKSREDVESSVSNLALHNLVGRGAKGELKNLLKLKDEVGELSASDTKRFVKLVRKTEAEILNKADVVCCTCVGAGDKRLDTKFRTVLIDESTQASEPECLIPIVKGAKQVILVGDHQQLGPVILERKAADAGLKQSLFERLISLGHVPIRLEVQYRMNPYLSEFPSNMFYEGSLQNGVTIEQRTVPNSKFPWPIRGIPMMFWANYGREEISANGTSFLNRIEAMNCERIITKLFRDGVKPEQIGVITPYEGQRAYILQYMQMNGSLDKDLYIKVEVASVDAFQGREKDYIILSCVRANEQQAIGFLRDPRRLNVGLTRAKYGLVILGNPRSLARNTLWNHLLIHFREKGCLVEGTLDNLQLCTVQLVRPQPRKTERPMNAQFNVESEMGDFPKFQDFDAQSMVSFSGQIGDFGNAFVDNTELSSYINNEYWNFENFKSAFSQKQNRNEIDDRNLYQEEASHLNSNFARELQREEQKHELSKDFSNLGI

[2] = biological target: T2, Upf2-TAP (S. cerevisiae) (UniProt P38798)
T2 sequence: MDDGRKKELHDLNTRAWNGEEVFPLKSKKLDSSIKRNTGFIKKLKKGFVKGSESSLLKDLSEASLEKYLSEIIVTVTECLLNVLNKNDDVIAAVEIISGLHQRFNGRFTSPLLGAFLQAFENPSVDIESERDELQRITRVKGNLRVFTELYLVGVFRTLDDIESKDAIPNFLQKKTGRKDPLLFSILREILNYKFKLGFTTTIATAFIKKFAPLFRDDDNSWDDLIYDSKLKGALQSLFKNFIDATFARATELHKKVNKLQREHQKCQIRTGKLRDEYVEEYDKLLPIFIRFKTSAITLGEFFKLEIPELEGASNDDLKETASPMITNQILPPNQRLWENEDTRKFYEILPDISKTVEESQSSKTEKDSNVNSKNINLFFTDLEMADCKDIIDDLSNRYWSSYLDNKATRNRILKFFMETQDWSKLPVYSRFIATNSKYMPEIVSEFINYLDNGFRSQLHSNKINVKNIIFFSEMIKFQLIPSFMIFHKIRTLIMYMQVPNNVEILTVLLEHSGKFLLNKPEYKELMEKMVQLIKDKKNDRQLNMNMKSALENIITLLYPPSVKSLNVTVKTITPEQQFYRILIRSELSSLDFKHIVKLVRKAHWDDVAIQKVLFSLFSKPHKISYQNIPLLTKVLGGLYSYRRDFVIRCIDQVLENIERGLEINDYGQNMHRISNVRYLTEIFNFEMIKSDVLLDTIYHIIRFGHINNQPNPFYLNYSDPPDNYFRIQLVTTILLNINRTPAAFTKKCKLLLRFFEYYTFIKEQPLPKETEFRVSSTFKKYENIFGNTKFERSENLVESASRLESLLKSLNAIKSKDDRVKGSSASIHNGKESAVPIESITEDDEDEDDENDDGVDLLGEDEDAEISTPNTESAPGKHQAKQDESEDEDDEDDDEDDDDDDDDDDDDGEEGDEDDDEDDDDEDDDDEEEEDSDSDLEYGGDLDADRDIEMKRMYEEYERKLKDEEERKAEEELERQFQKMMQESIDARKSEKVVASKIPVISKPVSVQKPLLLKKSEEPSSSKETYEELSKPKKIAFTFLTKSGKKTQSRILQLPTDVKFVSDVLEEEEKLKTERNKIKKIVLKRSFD

[3] = biological target: T3, Upf3-TAP (S. cerevisiae) (UniProt P48412)
T3 sequence: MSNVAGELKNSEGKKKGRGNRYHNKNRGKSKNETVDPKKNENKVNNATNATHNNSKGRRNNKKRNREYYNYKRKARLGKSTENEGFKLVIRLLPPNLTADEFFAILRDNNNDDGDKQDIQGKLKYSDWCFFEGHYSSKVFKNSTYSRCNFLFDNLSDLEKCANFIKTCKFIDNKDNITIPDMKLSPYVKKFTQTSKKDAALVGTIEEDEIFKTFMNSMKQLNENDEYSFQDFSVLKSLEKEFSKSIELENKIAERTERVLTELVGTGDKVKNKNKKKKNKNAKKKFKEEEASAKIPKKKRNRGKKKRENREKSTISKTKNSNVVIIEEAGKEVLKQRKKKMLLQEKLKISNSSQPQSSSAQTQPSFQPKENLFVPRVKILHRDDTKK

Row | Substance | binding [1] | binding [2] | binding [3]
1 | Cbf5 (from UniProt P33322 1-483) | binds | – | –
2 | Gar1 (from UniProt P28007 1-205) | binds | – | –
3 | Pma1 (from UniProt P05030 1-918) | no binding | – | –
4 | Tdh3 (from UniProt P00359 1-332) (enzyme) | no binding | – | –
5 | eRF1 (yeast Sup45) (from UniProt P12385 1-437) | – | no binding | no binding
6 | eRF3 (yeast Sup35) (from UniProt P05453 1-685) | – | no binding | no binding
